Experimental data: PubChem BioAssay AID504784 (Drosophila RNAi Screening Center, 2011)

Aim: 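Search for regulators of lipid droplet storage in oleate-fed fly cells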 (primary screen)
System: Drosophila Kc167 embryonic cells
Reagents: long dsRNA against Drosophila genes, about 250 ng dsRNA per well
Duration: 4 days
Treatment: cells fed 400 µM oleic acid bound to BSA
Measured: 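Microscope images give a droplet-to-nucleus area ratio, taken as log and converted to a screen-wide B-score; higher values mean greater lipid storage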
Reading the numbers: droplet/nuclear area B-score: higher = more stored lipid (overstorage)
The deposit covers about 17,000 reagents; shown is a random part of those with a known target gene and a result. 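Each column is one replicate's B-score; the combined score over replicates was not deposited, so single values may mislead.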 Reagents against one gene are numbered here. Names joined by + are all predicted targets of the reagent. Not all columns of the deposit are shown.

| gene | reagent no. | droplet/nuclear area B-score, replicate 1 |
| --- | --- | --- |
| CG14712 | 1 | -6.87 |
| CG15740 | 1 | 0.603 |
| CG15740 | 2 | 0.464 |
| ths | 1 | 2.31 |
| ths | 2 | -0.0467 |
| Ssk | 1 | 0.097 |
| CG5280 | 1 | -0.8 |
| CG5280 | 2 | 2.16 |
| CG4853 | 1 | -1.14 |
| atos | 1 | 3.94 |
| CG4613 | 1 | -0.129 |
| pzg | 1 | 0.626 |
| CG14692 | 1 | -0.112 |
| sphinx1 | 1 | -0.737 |
| Gr43a | 1 | 0.0225 |
| CG17618 (retired record) + CG45049 | 1 | -2.6 |
| CG17618 (retired record) + CG45049 | 2 | 0.656 |
| CG17618 (retired record) + CG45049 | 3 | 0.006 |
| CG6938 | 1 | -0.548 |
| Ptip | 1 | 1.48 |
| Ptip | 2 | 1.25 |
| Ilp2 | 1 | -0.314 |
| CG6790 | 1 | 6.21 |
| mRpS26 | 1 | 0.353 |
| glo | 1 | -1.33 |
| CG32017 | 1 | -0.152 |
| wg | 1 | -0.151 |
| CG15756 | 1 | -1.7 |
| CG2604 | 1 | 0.139 |
| Grip75 | 1 | -2.92 |
| CG14471 (retired record) | 1 | 0.522 |
| ash2 | 1 | -0.862 |
| CG10631 | 1 | -1.5 |
| Ogdh | 1 | 1.62 |
| Ogdh | 2 | 2.15 |
| CG3526 | 1 | 1.12 |
| CG3526 | 2 | -1.1 |
| Cpr12A | 1 | 2.12 |
| tsh | 1 | 1.69 |
| Trpml + CG42638 | 1 | 0.351 |
| Eogt | 1 | -1.89 |
| CG3397 | 1 | -1.1 |
| CG31226 | 1 | -0.641 |
| CG4839 | 1 | -0.369 |
| CG4839 | 2 | 0.678 |
| alpha-Est7 | 1 | 0.528 |
| CG43980 | 1 | 0.0338 |
| CG43980 | 2 | 0.201 |
| CDK2AP1 | 1 | 0.654 |
| cas | 1 | 1.67 |
| CG6621 | 1 | -0.0189 |
| AkhR | 1 | -1.72 |
| CG10357 | 1 | -0.703 |
| Hmgs | 1 | 0.0307 |
| otu | 1 | 1.53 |
| CG11426 | 1 | -0.536 |
| Hpd | 1 | -0.0902 |
| CG12541 | 1 | -0.82 |
| Atg10 + CG12822 | 1 | 0.489 |
| CG42264 | 1 | 1.11 |
| CG42264 | 2 | 1.54 |
| CG31115 | 1 | 0.0199 |
| His3:CG33818 + His3:CG33857 + His3:CG33806 + 20 more | 1 | 3 |
| CG12862 | 1 | -0.073 |
| ato | 1 | 1.4 |
| pix | 1 | 1.35 |
| CheB93a | 1 | -0.812 |
| CG8520 | 1 | 1.07 |
| CG14605 | 1 | -0.288 |
| Orp8 | 1 | -0.442 |
| Orp8 | 2 | 0.693 |
| Rab39 | 1 | -0.308 |
| CG9294 | 1 | -0.256 |
| Alg-2 | 1 | -0.849 |
| CG3982 | 1 | -0.29 |
| CG3982 | 2 | -0.00268 |
| dor | 1 | 1.32 |
| CSN8 | 1 | -3.15 |
| CG3330 | 1 | -1.57 |
| Hmgcl | 1 | 1.59 |
| JMJD7 | 1 | 1.64 |
| PH4alphaNE3 | 1 | 1.05 |
| Sema2a | 1 | -0.963 |
